Holding throughout (experiment): EMSA
Series [1] relates to CarolAnn gp44 (phage CarolAnn (mycophage)).
For series [2], the system named is Sbash gp30 (Mycobacterium phage Sbash (mycophage)).
In series [3] the test system is Toast gp42 (phage Toast (mycophage)).

Like-named read-outs stand apart in the source and are kept apart here. Construct, isoform or probe ends are uncertain for at least one entry. At least one verdict was read from the data and is not stated in words by the source.

As to “CATGCCAGGATATTCGCTACAAATAGTACGTGATACGACATCGCGAT (double strand) [Rex_OR1-OR2_Scram]”, the binding result in series [1] (profile unchanged vs OR1-OR2), in series [2] (profile unchanged vs OR1-OR2) and in series [3] (profile unchanged vs OR1-OR2) was “binds” in each case.

As for “CATTATCACCGCCAGAGGTAAAATAGTCAACACGCACGGTGTTAGAT (double strand) [Rex_OR1-OR2]”, the binding result in series [1], in series [2] and in series [3] was “binds” each time.

With “CATACGTCGAGTCTGACAGAAACATTCGGCAAACTTTCGAACTGGGTGGCAAACATCATCAGTGTAATTTCCTCCGACTATTGGGTCTTAGGTCAAGAAACCCCTGGTAGTCCAGGTTTGCCGTTTTAGGAAAAGTTTCGGCATGTCGGTTTGCCGACCCGAATCTACGGTGTATCTTCGGGGATATG (double strand) [Sbash_OR1-OR2-OR3]”, in series [2], the binding result is “binds”.

On to “CACCGACCCGGCTACCGCTTAACGCGTGTCGTGTCGCACCTGCCGTCTACCAATGACTACCGGGGATTGTGCCTCATATCCGCAGGCTGCGGAACTACAGGGCTGTAATTTCTTGACGAGCGTCTACCTGCTGCGGAAGAATCATCCGCAGCCTATTGACACCACCCCGTCTACCAGGAGAGACTCATG (double strand) [Toast_OR1-OR2-OR3]”, for which the binding result in series [3] is reported as “binds”.

As to “CATGGATTGAGGTTCAACCGCCCGTCCTTCGGCACGCAACGCGCAACGGAACCTATGCGGTTACCGCGTTTGCTCGCTCCGGCTTCCTTCTCCGTGTACCAACTTGTCCCCCGGATTGTGCCGCATACACGCAGGCTGCGGAACTACCGCCGTGTAATTCATTGCCATGCGTGTACCCACCATGCAAGAATCATACGCAGTTGCTTGACACCCAGCCGGTTACCGAGGAGGATCAATGGCGAGCTACACACGCTGGCCGAAGGGAAGTTGGATG (double strand) [CarolAnn_OR1-OR2-OR3]”, the binding result in series [1] is “binds”.

Values taken from publication doi:10.1101/2023.08.31.555690.
